Assay results taken from the supplement of paper PMC6411743.
± gives the standard deviation of the averaged measurements. This is a selection; strong and weak results do not stand in their true shares.

Sequences of proteins named here, by UniProt entry; tags and fusion partners are left off. A change or cut given only in a name is not applied to a line headed by its entry.
UniProt P08243: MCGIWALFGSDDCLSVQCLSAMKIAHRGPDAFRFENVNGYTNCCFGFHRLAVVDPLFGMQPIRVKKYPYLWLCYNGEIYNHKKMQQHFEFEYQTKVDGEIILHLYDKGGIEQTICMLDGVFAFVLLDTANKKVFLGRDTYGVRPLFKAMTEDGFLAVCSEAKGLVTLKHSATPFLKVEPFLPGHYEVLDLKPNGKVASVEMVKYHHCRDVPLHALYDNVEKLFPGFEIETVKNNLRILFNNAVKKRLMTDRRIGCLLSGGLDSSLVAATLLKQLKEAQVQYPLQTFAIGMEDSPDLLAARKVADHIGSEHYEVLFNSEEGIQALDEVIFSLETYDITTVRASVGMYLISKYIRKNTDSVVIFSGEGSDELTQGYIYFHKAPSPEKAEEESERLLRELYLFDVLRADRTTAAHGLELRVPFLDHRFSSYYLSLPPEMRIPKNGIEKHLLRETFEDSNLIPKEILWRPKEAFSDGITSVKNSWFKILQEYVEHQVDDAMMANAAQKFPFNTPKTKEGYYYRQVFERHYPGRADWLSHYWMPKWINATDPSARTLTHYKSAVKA
UniProt P16885: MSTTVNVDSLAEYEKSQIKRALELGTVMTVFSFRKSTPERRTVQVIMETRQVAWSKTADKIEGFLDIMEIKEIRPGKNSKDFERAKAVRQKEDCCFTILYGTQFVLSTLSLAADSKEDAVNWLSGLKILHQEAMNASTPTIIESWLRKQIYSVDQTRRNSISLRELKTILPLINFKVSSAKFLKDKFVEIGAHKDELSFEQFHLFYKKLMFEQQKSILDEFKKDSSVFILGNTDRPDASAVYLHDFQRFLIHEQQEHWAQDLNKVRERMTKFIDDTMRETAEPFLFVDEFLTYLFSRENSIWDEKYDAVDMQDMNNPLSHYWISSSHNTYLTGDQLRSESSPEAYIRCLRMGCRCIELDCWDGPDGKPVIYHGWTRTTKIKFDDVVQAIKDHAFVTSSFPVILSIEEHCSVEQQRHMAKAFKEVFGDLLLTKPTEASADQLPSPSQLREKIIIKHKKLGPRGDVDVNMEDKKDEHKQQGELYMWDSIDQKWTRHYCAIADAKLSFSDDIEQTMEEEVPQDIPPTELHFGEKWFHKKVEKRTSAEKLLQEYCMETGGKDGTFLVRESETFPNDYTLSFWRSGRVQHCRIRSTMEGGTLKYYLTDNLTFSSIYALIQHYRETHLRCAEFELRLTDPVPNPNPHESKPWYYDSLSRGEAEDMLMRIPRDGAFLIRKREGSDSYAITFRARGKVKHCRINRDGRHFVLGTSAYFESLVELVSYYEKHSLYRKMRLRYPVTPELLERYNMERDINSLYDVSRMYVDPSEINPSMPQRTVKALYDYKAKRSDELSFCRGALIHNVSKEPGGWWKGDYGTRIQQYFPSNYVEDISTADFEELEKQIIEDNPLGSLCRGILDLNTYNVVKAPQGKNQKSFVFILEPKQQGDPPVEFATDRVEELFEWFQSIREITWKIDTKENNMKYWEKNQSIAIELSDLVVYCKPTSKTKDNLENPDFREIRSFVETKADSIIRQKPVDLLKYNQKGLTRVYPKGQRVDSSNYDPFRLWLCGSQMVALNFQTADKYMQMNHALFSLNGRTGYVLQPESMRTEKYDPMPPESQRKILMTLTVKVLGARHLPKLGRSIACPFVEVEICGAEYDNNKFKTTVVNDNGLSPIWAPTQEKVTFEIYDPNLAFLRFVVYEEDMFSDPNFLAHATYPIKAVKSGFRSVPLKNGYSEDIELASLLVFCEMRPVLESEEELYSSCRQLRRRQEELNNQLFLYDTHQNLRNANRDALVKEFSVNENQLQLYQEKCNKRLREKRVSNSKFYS
UniProt O95831, whole entry: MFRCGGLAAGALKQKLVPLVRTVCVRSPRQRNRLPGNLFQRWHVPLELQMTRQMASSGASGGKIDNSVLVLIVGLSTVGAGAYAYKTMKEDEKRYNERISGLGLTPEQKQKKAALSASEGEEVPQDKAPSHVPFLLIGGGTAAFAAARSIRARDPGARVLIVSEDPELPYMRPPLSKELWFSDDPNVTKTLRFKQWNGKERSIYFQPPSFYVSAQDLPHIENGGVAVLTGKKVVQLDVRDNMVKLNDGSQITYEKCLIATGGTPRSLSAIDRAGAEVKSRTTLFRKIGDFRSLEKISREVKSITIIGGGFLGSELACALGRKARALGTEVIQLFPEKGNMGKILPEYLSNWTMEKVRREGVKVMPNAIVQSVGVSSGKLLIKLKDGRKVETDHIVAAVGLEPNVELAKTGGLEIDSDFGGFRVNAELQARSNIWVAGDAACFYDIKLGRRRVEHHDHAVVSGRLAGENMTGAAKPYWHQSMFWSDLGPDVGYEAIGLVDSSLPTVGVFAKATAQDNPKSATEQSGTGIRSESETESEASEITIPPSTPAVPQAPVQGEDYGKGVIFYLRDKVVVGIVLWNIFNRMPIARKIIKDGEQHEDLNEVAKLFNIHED
UniProt O96006: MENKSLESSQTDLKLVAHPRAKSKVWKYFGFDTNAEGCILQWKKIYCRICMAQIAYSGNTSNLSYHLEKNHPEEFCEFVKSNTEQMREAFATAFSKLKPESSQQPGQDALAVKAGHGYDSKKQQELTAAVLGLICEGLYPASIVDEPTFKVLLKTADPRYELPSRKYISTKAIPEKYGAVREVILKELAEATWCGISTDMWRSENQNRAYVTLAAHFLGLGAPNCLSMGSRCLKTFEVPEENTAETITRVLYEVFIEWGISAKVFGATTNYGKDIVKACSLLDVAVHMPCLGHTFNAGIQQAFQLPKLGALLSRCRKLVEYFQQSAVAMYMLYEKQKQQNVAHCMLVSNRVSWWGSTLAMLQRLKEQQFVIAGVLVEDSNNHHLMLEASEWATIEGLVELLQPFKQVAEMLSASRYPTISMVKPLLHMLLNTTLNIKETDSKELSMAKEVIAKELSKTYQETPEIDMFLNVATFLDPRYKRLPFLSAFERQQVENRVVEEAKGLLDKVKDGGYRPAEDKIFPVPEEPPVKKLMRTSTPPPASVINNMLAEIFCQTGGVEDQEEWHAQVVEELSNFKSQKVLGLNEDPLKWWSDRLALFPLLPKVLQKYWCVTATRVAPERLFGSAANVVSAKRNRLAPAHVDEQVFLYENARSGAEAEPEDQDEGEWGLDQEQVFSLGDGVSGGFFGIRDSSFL
UniProt P10244: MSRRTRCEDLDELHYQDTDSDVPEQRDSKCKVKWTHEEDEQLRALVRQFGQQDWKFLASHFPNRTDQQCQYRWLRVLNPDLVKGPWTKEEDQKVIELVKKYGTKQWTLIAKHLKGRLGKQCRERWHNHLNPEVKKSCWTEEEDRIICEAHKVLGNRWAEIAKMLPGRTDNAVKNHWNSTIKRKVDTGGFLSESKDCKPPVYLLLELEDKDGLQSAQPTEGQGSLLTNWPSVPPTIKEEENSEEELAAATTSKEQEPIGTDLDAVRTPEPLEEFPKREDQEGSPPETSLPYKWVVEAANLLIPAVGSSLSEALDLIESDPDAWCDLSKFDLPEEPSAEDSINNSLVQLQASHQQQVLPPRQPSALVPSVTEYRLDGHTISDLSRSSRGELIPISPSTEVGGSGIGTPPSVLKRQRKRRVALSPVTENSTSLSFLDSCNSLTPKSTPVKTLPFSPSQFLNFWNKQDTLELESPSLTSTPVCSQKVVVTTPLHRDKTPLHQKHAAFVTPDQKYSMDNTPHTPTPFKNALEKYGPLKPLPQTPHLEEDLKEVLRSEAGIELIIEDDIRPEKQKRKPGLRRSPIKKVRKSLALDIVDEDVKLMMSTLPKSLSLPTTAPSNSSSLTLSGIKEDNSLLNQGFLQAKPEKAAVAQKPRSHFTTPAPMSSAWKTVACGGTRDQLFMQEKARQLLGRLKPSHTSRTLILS
UniProt P01737: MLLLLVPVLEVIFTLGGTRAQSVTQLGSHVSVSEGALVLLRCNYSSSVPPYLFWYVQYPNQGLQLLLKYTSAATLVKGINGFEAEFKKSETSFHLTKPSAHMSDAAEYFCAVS
UniProt P08574: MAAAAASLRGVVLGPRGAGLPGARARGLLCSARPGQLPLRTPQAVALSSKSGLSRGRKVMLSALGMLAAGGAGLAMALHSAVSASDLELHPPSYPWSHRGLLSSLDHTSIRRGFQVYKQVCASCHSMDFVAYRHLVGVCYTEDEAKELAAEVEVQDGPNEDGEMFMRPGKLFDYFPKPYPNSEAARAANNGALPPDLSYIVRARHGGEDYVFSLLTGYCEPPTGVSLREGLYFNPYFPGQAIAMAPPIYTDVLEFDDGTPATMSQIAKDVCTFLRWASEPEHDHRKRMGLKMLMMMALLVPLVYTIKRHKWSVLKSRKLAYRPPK
UniProt P06733, whole entry: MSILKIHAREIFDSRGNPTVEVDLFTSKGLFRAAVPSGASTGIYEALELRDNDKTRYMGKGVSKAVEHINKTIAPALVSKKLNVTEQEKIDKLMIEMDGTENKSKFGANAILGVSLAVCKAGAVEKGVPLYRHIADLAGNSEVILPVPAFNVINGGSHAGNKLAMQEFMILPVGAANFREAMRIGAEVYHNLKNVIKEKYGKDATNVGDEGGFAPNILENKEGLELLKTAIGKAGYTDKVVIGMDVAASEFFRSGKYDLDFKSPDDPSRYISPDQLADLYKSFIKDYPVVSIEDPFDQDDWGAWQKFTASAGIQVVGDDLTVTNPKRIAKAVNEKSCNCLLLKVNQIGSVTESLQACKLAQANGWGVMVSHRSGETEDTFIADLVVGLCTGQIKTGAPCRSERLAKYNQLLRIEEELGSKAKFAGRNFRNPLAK
UniProt P10636, whole entry: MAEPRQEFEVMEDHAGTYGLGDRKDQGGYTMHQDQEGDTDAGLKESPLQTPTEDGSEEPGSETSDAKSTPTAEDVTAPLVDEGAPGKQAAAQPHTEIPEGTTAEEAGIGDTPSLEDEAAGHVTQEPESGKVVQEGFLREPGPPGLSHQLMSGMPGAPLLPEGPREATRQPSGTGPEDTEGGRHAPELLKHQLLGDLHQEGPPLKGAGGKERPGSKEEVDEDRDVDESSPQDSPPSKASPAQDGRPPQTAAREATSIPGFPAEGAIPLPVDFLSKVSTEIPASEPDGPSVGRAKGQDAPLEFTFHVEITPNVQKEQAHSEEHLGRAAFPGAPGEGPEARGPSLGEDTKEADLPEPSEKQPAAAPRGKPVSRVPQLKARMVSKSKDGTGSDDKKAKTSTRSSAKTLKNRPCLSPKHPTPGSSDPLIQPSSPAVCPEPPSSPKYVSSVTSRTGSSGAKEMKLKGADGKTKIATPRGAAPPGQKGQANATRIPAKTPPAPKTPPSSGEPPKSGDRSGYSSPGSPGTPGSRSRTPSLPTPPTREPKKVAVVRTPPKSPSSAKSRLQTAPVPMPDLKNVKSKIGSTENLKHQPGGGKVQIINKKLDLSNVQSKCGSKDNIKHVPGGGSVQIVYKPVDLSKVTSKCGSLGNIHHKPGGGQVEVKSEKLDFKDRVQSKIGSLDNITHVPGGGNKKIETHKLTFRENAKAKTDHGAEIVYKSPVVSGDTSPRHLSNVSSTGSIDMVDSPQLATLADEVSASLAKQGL
UniProt P07311: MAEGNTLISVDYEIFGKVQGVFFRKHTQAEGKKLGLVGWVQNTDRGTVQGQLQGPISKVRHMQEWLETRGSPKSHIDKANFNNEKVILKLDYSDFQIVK
UniProt P16220: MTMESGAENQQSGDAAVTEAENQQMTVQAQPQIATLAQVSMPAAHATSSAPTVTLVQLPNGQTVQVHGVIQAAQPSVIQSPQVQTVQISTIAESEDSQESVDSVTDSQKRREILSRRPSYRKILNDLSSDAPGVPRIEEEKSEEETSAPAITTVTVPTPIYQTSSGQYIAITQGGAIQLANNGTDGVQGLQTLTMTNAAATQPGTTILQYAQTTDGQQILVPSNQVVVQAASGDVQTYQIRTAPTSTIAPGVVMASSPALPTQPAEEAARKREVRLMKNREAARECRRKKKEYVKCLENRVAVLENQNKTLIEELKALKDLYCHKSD
UniProt P07992: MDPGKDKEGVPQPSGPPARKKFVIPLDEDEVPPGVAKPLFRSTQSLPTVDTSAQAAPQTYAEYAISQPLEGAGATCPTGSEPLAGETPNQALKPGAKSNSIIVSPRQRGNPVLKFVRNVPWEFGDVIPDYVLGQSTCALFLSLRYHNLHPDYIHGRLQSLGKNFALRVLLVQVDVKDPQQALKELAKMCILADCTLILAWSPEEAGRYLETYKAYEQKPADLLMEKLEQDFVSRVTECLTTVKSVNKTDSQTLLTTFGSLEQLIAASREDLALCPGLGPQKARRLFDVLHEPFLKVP
UniProt P07339: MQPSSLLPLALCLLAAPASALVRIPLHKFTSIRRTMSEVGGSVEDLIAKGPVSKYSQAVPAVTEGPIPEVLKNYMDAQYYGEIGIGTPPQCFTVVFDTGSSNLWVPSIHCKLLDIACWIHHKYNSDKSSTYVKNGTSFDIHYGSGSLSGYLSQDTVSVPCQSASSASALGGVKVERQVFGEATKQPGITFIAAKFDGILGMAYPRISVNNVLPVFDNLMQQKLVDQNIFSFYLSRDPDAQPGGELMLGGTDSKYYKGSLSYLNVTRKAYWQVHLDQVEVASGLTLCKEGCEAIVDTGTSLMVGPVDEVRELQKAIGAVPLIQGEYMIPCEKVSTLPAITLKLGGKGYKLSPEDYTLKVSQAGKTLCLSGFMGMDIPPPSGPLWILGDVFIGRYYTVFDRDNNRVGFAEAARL

Compound: Nc1ncnc2c1ncn2[C@@H]1O[C@H](COP(=O)(O)OP(=O)(O)NP(=O)(O)O)[C@@H](O)[C@H]1O [adenylyl imidodiphosphate]
Assay: NP40-soluble protein abundance relative to vehicle (solubility fold change) (ratio); higher = more soluble protein in presence of AMP-PNP
Procedure, shortened: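 In three independent experiments, Jurkat crude lysate made by Dounce homogenisation was treated for 10 min at room temperature and then 3 min at 37 °C with eight concentrations ranging from 0.1 to 10 mM. It was then solubilised with 0.8% NP40 plus benzonase for 60 min at 4 °C and ultracentrifuged. The supernatant was TMT-labelled for LC-MS/MS, and each value is the fold change against the detergent-processed vehicle for the same replicate, using vsn-normalised intensities.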

Target	NP40-soluble protein abundance (concentration: 1mM)	NP40-soluble protein abundance (concentration: 2mM)	NP40-soluble protein abundance (concentration: 4mM)	NP40-soluble protein abundance (concentration: 6mM)	NP40-soluble protein abundance (concentration: 8mM)	NP40-soluble protein abundance (concentration: 10mM)
UniProt P04075 and related entries	1.01 ± 0.033	1.02 ± 0.03	1 ± 0.032	1.07 ± 0.035	1.04 ± 0.019	1.086 ± 0.0049
FTL (UniProt P02792)	0.963 ± 0.081	1.02 ± 0.073	0.949 ± 0.018	0.844 ± 0.11	0.847 ± 0.09	0.827 ± 0.11
UniProt P15170-2|P15170-3|H3BSV8	0.993 ± 0.025	0.955 ± 0.035	0.96 ± 0.01	0.995 ± 0.012	0.964 ± 0.014	0.968 ± 0.043
UniProt P08243 and related entries	1.01 ± 0.049	0.923 ± 0.052	0.974 ± 0.031	0.952 ± 0.026	0.973 ± 0.018	0.919 ± 0.032
SNAP29 (UniProt O95721)	1.01 ± 0.063	1.07 ± 0.084	1.01 ± 0.086	0.964 ± 0.018	0.978 ± 0.031	0.968 ± 0.072
ETS1 (UniProt P14921)	1.01 ± 0.043	0.995 ± 0.063	0.987 ± 0.038	0.96 ± 0.05	0.951 ± 0.042	0.933 ± 0.054
SLC25A6 (UniProt P12236)	0.929 ± 0.069	0.9307 ± 0.0093	0.932 ± 0.029	1.01 ± 0.049	0.993 ± 0.051	1.03 ± 0.072
UniProt P11234 and related entries	1.02 ± 0.034	0.998 ± 0.039	1 ± 0.045	1.04 ± 0.037	1.03 ± 0.064	1.02 ± 0.064
AKR1A1 (UniProt P14550)	0.957 ± 0.043	0.931 ± 0.053	0.955 ± 0.03	0.951 ± 0.032	0.96 ± 0.032	0.929 ± 0.068
XRCC6 (UniProt P12956)	0.898 ± 0.14	0.892 ± 0.12	0.852 ± 0.082	0.88 ± 0.06	0.932 ± 0.031	0.855 ± 0.092
EIF2S1 (UniProt P05198)	1.01 ± 0.031	0.947 ± 0.078	1.02 ± 0.019	1.04 ± 0.034	1.07 ± 0.029	1.05 ± 0.026
DDAH2 (UniProt O95865)	1 ± 0.045	0.995 ± 0.033	0.995 ± 0.064	1.02 ± 0.057	1.04 ± 0.063	0.997 ± 0.066
UniProt P07954-2	0.988 ± 0.009	0.968 ± 0.021	0.982 ± 0.014	1.01 ± 0.024	0.998 ± 0.018	1.01 ± 0.02
PLCG2 (UniProt P16885)	0.987 ± 0.017	0.901 ± 0.13	0.958 ± 0.041	0.915 ± 0.019	0.951 ± 0.044	0.895 ± 0.045
UniProt O95831 and related entries	0.9988 ± 0.0052	0.941 ± 0.075	0.97 ± 0.028	0.9628 ± 0.0027	0.984 ± 0.038	0.944 ± 0.023
UniProt P08559 and related entries	0.979 ± 0.13	0.94 ± 0.13	0.925 ± 0.13	0.923 ± 0.17	0.95 ± 0.12	0.965 ± 0.15
ZBED1 (UniProt O96006)	1.03 ± 0.013	1 ± 0.012	0.985 ± 0.024	0.981 ± 0.016	0.962 ± 0.037	0.975 ± 0.023
UniProt O95786 and related entries	0.996 ± 0.051	0.944 ± 0.035	0.978 ± 0.022	0.942 ± 0.017	0.967 ± 0.021	0.933 ± 0.029
UniProt P05161 and related entries	0.991 ± 0.034	0.962 ± 0.028	0.984 ± 0.051	1.04 ± 0.094	1.07 ± 0.062	1.05 ± 0.058
UniProt P10244 and related entries	1.04 ± 0.071	1.06 ± 0.031	1.04 ± 0.054	1.02 ± 0.067	0.998 ± 0.04	1.01 ± 0.029
UniProt P01737	1.03 ± 0.026	1.11 ± 0.16	1.06 ± 0.083	1.08 ± 0.085	1.11 ± 0.039	1.16 ± 0.091
RNH1 (UniProt P13489)	0.944 ± 0.038	0.899 ± 0.041	0.919 ± 0.047	0.957 ± 0.053	0.961 ± 0.043	0.916 ± 0.052
CYC1 (UniProt P08574)	0.998 ± 0.046	0.983 ± 0.046	0.977 ± 0.027	0.991 ± 0.071	0.971 ± 0.048	0.977 ± 0.029
TXN (UniProt P10599)	1.01 ± 0.038	1.04 ± 0.07	0.981 ± 0.053	0.9967 ± 0.0035	0.966 ± 0.043	0.954 ± 0.051
UniProt P06733 and related entries	1.01 ± 0.049	1.02 ± 0.013	0.986 ± 0.017	0.989 ± 0.024	0.978 ± 0.03	0.986 ± 0.036
ALDOC (UniProt P09972)	1.01 ± 0.023	1.01 ± 0.018	1.01 ± 0.042	1.06 ± 0.058	1.07 ± 0.043	1.09 ± 0.035

Target	NP40-soluble protein abundance (concentration: 1mM)	NP40-soluble protein abundance (concentration: 2mM)	NP40-soluble protein abundance (concentration: 4mM)	NP40-soluble protein abundance (concentration: 6mM)	NP40-soluble protein abundance (concentration: 8mM)	NP40-soluble protein abundance (concentration: 10mM)
IFNGR1 (UniProt P15260)	1.05 ± 0.023	1.04 ± 0.046	1.02 ± 0.042	1.03 ± 0.038	0.996 ± 0.017	1.01 ± 0.04
GNAI3 (UniProt P08754)	0.959 ± 0.068	0.877 ± 0.077	0.956 ± 0.024	0.984 ± 0.087	1.03 ± 0.074	0.967 ± 0.083
P0DN76 and related entries (UniProt Q01081+P0DN76)	1.04 ± 0.065	1.06 ± 0.083	1.12 ± 0.05	1.29 ± 0.099	1.47 ± 0.18	1.51 ± 0.18
GOT2 (UniProt P00505)	0.981 ± 0.02	0.909 ± 0.052	0.949 ± 0.015	1 ± 0.051	1.01 ± 0.043	0.984 ± 0.03
UniProt P10636-2|P10636-4|P10636-7|P10636-9|P10636-6	1.02 ± 0.013	1.12 ± 0.088	1.04 ± 0.075	1 ± 0.039	0.979 ± 0.053	1.01 ± 0.093
CKB (UniProt P12277)	0.981 ± 0.023	0.993 ± 0.034	1.01 ± 0.031	1.05 ± 0.025	1.03 ± 0.045	1.03 ± 0.077
UniProt P07311 and related entries	0.994 ± 0.064	1.01 ± 0.1	1.06 ± 0.099	1.2 ± 0.16	1.2 ± 0.085	1.26 ± 0.068
UniProt P16383 and related entries	1.05 ± 0.038	1.09 ± 0.044	1.101 ± 0.0092	1.08 ± 0.03	1.07 ± 0.033	1.097 ± 0.0024
ESD (UniProt P10768)	0.986 ± 0.03	0.942 ± 0.022	0.962 ± 0.024	0.983 ± 0.029	0.986 ± 0.015	0.93 ± 0.027
UniProt P05023 and related entries	1.05 ± 0.052	1.06 ± 0.021	1.03 ± 0.037	0.995 ± 0.053	0.993 ± 0.068	0.98 ± 0.053
UniProt O95980	0.995 ± 0.016	1.02 ± 0.0047	1.01 ± 0.014	0.977 ± 0.013	0.973 ± 0.023	1.02 ± 0.024
UniProt P00167 and related entries	0.995 ± 0.028	0.984 ± 0.033	0.936 ± 0.036	0.992 ± 0.011	0.948 ± 0.021	0.966 ± 0.012
UniProt O96005 and related entries	1.02 ± 0.065	0.971 ± 0.019	0.999 ± 0.044	0.994 ± 0.057	0.984 ± 0.037	1 ± 0.041
PCNA (UniProt P12004)	1.008 ± 0.0098	0.998 ± 0.012	0.957 ± 0.012	0.973 ± 0.015	0.951 ± 0.018	0.935 ± 0.024
UniProt P15291 and related entries	0.983 ± 0.036	0.967 ± 0.044	0.966 ± 0.023	0.977 ± 0.0099	0.961 ± 0.031	0.977 ± 0.023
UniProt P01116-2	1.03 ± 0.04	1.05 ± 0.028	1.02 ± 0.022	0.9797 ± 0.0054	0.992 ± 0.015	0.974 ± 0.015
CREB1 (UniProt P16220)	1.04 ± 0.051	1.07 ± 0.015	1 ± 0.052	1.02 ± 0.019	1 ± 0.031	1.03 ± 0.032
UniProt P11310 and related entries	1.02 ± 0.017	0.995 ± 0.034	0.988 ± 0.022	1.02 ± 0.037	1 ± 0.049	1.01 ± 0.049
UniProt P07992 and related entries	0.944 ± 0.079	0.921 ± 0.07	0.926 ± 0.093	0.954 ± 0.096	0.97 ± 0.1	0.948 ± 0.073
UniProt P11171 and related entries	1.015 ± 0.008	1.015 ± 0.0095	1.01 ± 0.035	0.986 ± 0.012	0.972 ± 0.017	0.98 ± 0.03
OAT (UniProt P04181)	1 ± 0.061	0.963 ± 0.038	0.992 ± 0.066	1.03 ± 0.043	1.02 ± 0.064	1.04 ± 0.036
CTSD (UniProt P07339)	0.995 ± 0.051	0.973 ± 0.059	0.993 ± 0.072	1.08 ± 0.099	1.09 ± 0.093	1.09 ± 0.091
SPN (UniProt P16150)	0.954 ± 0.063	1.02 ± 0.066	0.985 ± 0.073	0.988 ± 0.068	0.959 ± 0.062	0.944 ± 0.088
PARP1 (UniProt P09874)	1.06 ± 0.018	1.09 ± 0.05	1.21 ± 0.016	1.39 ± 0.027	1.51 ± 0.071	1.59 ± 0.11
UniProt P14735 and related entries	0.996 ± 0.017	0.924 ± 0.12	0.973 ± 0.044	0.966 ± 0.015	0.976 ± 0.019	0.936 ± 0.025
UniProt P11388 and related entries	1.66 ± 0.082	1.72 ± 0.05	1.82 ± 0.16	1.98 ± 0.14	2.04 ± 0.24	2.13 ± 0.27

An excerpt from above, reduced to NP40-soluble protein abundance (concentration: 10mM) and NP40-soluble protein abundance (concentration: 4mM).
Target	NP40-soluble protein abundance (concentration: 10mM)	NP40-soluble protein abundance (concentration: 4mM)
SLC25A6 (UniProt P12236)	1.03 ± 0.072	0.932 ± 0.029
UniProt P11234 and related entries	1.02 ± 0.064	1 ± 0.045
AKR1A1 (UniProt P14550)	0.929 ± 0.068	0.955 ± 0.03
